Measurements taken from PubChem BioAssay AID1117319 (Southern Research Institute, 2015).
Among all 260,000 compounds or so, about 1,500 (0.58%) were called active. The shares of active, inactive and inconclusive entries below differ from those in the screen.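 The calls were made as follows: active = inhibition above a set limit at one or more doses, reproduced on every date tested; inconclusive = results disagree between test dates, or hit never tested in dose response; inactive = the rest.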

By UniProt entry, the sequences of proteins in these tests, tags left out. Where a name states a change or a piece, a line headed by the entry shows the natural chain unless it says otherwise.
UniProt P69720: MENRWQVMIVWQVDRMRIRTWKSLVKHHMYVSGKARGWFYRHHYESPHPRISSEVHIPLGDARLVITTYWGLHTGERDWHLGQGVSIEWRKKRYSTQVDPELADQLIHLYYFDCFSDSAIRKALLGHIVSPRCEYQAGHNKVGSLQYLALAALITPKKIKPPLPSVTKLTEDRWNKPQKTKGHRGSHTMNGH
UniProt P69721: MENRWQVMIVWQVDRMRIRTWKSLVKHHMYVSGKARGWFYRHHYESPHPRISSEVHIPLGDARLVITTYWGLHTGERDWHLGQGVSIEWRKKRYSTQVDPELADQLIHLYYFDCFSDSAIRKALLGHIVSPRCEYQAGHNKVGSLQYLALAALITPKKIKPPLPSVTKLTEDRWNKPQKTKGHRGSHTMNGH
UniProt P69722: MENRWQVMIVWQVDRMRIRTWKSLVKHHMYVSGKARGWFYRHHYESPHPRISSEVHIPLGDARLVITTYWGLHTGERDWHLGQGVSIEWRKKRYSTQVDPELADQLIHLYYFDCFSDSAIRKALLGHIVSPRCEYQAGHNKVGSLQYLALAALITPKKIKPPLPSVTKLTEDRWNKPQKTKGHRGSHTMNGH
UniProt P69723: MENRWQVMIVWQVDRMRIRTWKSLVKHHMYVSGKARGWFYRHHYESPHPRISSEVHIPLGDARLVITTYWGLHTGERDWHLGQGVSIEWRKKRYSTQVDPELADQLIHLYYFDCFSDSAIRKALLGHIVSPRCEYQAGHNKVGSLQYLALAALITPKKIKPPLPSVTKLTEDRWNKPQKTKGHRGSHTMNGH
UniProt Q9HC16: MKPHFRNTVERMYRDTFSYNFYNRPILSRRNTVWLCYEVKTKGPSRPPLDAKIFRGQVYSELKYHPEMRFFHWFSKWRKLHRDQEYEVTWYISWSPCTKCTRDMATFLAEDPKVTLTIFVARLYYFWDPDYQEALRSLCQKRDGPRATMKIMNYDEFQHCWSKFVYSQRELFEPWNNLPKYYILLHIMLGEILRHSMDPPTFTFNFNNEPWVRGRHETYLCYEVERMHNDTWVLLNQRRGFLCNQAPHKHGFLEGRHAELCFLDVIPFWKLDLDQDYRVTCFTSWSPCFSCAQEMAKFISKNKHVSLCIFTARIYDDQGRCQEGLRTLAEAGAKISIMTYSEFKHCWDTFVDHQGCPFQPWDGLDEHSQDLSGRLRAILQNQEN

The compounds below were run against Virion infectivity factor (Human immunodeficiency virus type 1 group M subtype B (isolate BH10)) + Virion infectivity factor (Human immunodeficiency virus type 1 group M subtype B (isolate BRU/LAI)) + Virion infectivity factor (Human immunodeficiency virus type 1 group M subtype B (isolate PCV12)) + Virion infectivity factor (Human immunodeficiency virus type 1 group M subtype B (isolate HXB2)) + DNA dC->dU-editing enzyme APOBEC-3G (Homo sapiens) (UniProt P69720+P69721+P69722+P69723+Q9HC16) (assay: inhibitors of Vif binding to APOBEC3G peptide, primary screen, biochemical, TR-FRET, GST-Vif 1-94, biotin-A3G peptide, dose response retest (AID 1117319;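 also: Vif residues 1-94 fused to GST binding biotinylated APOBEC3G peptide 110-148; 0% = full assay without inhibitor and 100% = GST in place of GST-Vif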)). Details: stronger effect = higher value.
With C=CCNc1nc(SCC=C)nc2ccsc12 the inhibition was inconclusive: 33.7%.
With Cc1ccc(C)n1-c1ccc(N(C)C)cc1 the inhibition was inconclusive: 48.8%.
With COc1ccc(NC(=O)CN(Cc2ccccc2)S(C)(=O)=O)cc1 the inhibition was inconclusive: 42.4%.
With CC(NC(=O)c1nn(C)c(=O)c2ccccc12)c1ccccc1 (stereo unspecified) the inhibition was inconclusive: 52.1%.
For CCOC(=O)NC1(Nc2ccc(Cl)cn2)Oc2ccccc2O1, the inhibition was inconclusive: 52.1%.
Cc1cc(/C=C(/C#N)c2nc3ccccc3[nH]2)c(C)n1-c1cc(C(=O)O)cc(C(=O)O)c1 was tested, and the inhibition was inconclusive: 53.6%.
Cn1c(=O)[nH]c(=O)c2c1nc(CN1CCOCC1)n2CCCO was tested, and the inhibition was inconclusive: 38.4%.
For COc1ccc(Cl)cc1C(=O)NCCc1ccc(S(=O)(=O)NC(=O)NC2CCCCC2)cc1, the inhibition was inconclusive: 46.3%.
In the case of O=C(O)c1cc(-c2ccccc2)on1, the inhibition is reported as inconclusive: 77.5%.
For O=C1/C(=C\c2ccc3c(c2)OCO3)CCC/C1=C/c1ccc2c(c1)OCO2, the inhibition was inactive: 1.07%.
With COc1cc(CNc2cc(C)ccc2C)cc(OC)c1OC the inhibition was inconclusive: 34.7%.
In the case of O=C(Nc1ccc(Cc2ccncc2)cc1)C1CC1, the inhibition is reported as inconclusive: 62.7%.
For CC#C[C@]1(O)CC[C@H]2[C@@H]3CCC4=CC(=O)CCC4=C3[C@@H](c3ccc(N(C)C)cc3)C[C@@]21C, the inhibition was inconclusive: 38.2%.
In the case of CC(=O)OCC(=O)C1=CCC2C3CCC4=CC(=O)C=CC4(C)C3(F)C(OC(C)=O)CC12C (stereo unspecified), the inhibition is reported as inconclusive: 38.6%.
In the case of CN(CC(=O)N1CCN(c2ccccc2)CC1)S(=O)(=O)c1cccs1, the inhibition is reported as inconclusive: 37.8%.
In the case of CN(CCOC(=O)/C=C/c1ccco1)Cc1ccccc1, the inhibition is reported as inconclusive: 56.2%.
In the case of CN(C)S(=O)(=O)c1cccc(C(=O)N=C2N=C3C=CC(Cl)=CN3Cc3ccccc32)c1, the inhibition is reported as inconclusive: 61.6%.
In the case of CC1=NN(C(=O)Cc2ccc([N+](=O)[O-])cc2)C(O)(c2cccnc2)C1 (stereo unspecified), the inhibition is reported as inconclusive: 34.6%.
Cc1ccc2[nH]c(=O)c(CN(C(=O)c3cccc([N+](=O)[O-])c3)C(C)(C)C)cc2c1 was tested, and the inhibition was inactive: -6%.
For COC(=O)c1c(NC(=O)C2(C)Cc3ccccc3C(=O)O2)sc2c1CCCC2 (stereo unspecified), the inhibition was inactive: 20.6%.
For O=C(Nc1ccc(F)c(Cl)c1)NC1CC1, the inhibition was inconclusive: 39.9%.
With CCOc1ccc(CCNC(=O)C2CC=CCC2C(=O)OC(C)C)cc1OCC (stereo unspecified) the inhibition was inactive: 0.89%.
In the case of O=C1C=CC(=O)N1c1cccc(-c2ccccc2)c1, the inhibition is reported as inconclusive: 46.8%.
COc1ccc(S(=O)(=O)NCCSCc2ccco2)cc1 was tested, and the inhibition was inactive: 24%.
With CCOc1ccc(OCCn2ccnc2)cc1 the inhibition was inactive: -0.21%.
O=C(OCc1ccccc1Cl)c1ccc(-n2cnnc2)cc1 was tested, and the inhibition was inconclusive: 60.6%.
For CCN1C(=O)/C(=C/c2cnn(C)c2C)SC1=S, the inhibition was inconclusive: 48.7%.
For CC(=O)C(C)n1c(CN(C)Cc2ccccc2)nc2c1c(=O)n(C)c(=O)n2C (stereo unspecified), the inhibition was inconclusive: 45.2%.
N#CCN1C(=O)C(=O)N(Cc2cccc(C(F)(F)F)c2)C1=O was tested, and the inhibition was inactive: -1.35%.
In the case of Nc1nnc(CC(=O)N/N=C/c2ccc(-c3ccc(Cl)cc3Cl)o2)s1, the inhibition is reported as inconclusive: 33.5%.
For O=C(CNC(=O)c1ccncc1)N/N=C/c1cc(Br)ccc1OCc1ccccc1, the inhibition was inconclusive: 45.8%.
For CC(=O)Nc1ccc(S(=O)(=O)N2CCC(c3nc4ccc(C)cc4[nH]3)CC2)cc1, the inhibition was inconclusive: 42.2%.
COc1ccc(NC(=O)Nc2ccc(N(C)C)cc2)cc1 was tested, and the inhibition was inconclusive: 46.9%.
In the case of O=C(O)CC(Cn1[nH]nnc1=S)c1ccccc1 (stereo unspecified), the inhibition is reported as inactive: -2.23%.
O=C(Nc1cccc(F)c1)c1ccc(-c2ccccc2Cl)o1 was tested, and the inhibition was inconclusive: 47.5%.
With CCOc1ccc(OCC)c(NC(=O)C2CCCN(c3nc(C)cc(C)n3)C2)c1 (stereo unspecified) the inhibition was inconclusive: 34.2%.
For COC(=O)NNC(=O)c1ccc(C)cc1, the inhibition was inconclusive: 33.3%.
COc1ccnc(CSC(N)=Nc2ccccc2OC)c1 was tested, and the inhibition was inconclusive: 51.8%.
O=C(c1cnn2c(C(F)(F)F)cc(-c3ccco3)nc12)N1CCCCCC1 was tested, and the inhibition was inconclusive: 40.1%.
With CC(C)C(=O)NC(NC(=S)Nc1ccc(S(N)(=O)=O)cc1)C(Cl)(Cl)Cl (stereo unspecified) the inhibition was inconclusive: 47.8%.
In the case of O=C(COC(=O)C12CC3CC(CC(C3)C1)C2)NCc1ccco1, the inhibition is reported as inconclusive: 38.8%.
For CN1/C(=C\C(=O)CSc2nncn2C)C(C)(C)c2ccccc21, the inhibition was inconclusive: 42.1%.
CC1=NN(c2ccc(C(=O)OC(C)C)cc2)C(=O)/C1=C\C=C\c1ccco1 was tested, and the inhibition was inconclusive: 61.5%.
In the case of O=C1C(Cl)=C(NC2CCCCC2)C(=O)N1Cc1ccccc1, the inhibition is reported as inconclusive: 35.8%.
COc1ccc(CN(CC(=O)NCc2ccc(F)cc2)C(=O)c2ccco2)cc1 was tested, and the inhibition was inactive: -3.39%.
For CC(COc1cccc2ccccc12)CN1CCN(C)CC1 (stereo unspecified), the inhibition was inconclusive: 46.4%.
CC(=O)Oc1ccc(C2C3=C(CC(C)(C)CC3=O)Nc3cc4c(cc32)OCCO4)cc1 (stereo unspecified) was tested, and the inhibition was inconclusive: 57%.
COCCCn1c(=O)/c(=C\c2ccccc2OC(F)F)s/c1=C(/C#N)C(=O)NCCOC was tested, and the inhibition was inconclusive: 64.8%.
With COCCn1c(CN2CC(C)CC(C)C2)nc2c1c(=O)n(C)c(=O)n2C (stereo unspecified) the inhibition was inconclusive: 56.8%.
CN1CCc2c(sc(N)c2C(N)=O)C1 was tested, and the inhibition was inconclusive: 39.7%.
For Cc1cc(C)c(C)c(S(=O)(=O)N2CCN(c3ccc(O)cc3)CC2)c1C, the inhibition was inconclusive: 55.8%.
With COc1ccc(Cl)cc1C(=O)Nc1ccccc1N1CCN(C)CC1 the inhibition was inactive: 1.41%.
In the case of Cc1ccc(C)c2[nH]c(=O)c(CN(CC3CCCO3)S(=O)(=O)c3ccc4c(c3)OCCO4)cc12 (stereo unspecified), the inhibition is reported as inconclusive: 34.5%.
In the case of CCOCCc1nnc(NC(=O)CSc2ccccc2)s1, the inhibition is reported as inconclusive: 39.1%.
O=C(OCCN1C(=O)c2ccccc2C1=O)C1CCN(S(=O)(=O)c2cccs2)CC1 was tested, and the inhibition was inconclusive: 37.8%.
In the case of CCc1nn2c(=O)cc(COc3ccc(/C=C4\C(=N)N5N=C(C)SC5=NC4=O)cc3)nc2s1, the inhibition is reported as inactive: -5.78%.
Cc1ccc(S(=O)(=O)Nc2ccccc2-c2ccccc2)cc1 was tested, and the inhibition was inactive: -0.15%.
For CN1C(=O)NC2(O)C(=O)c3ccccc3C12O (stereo unspecified), the inhibition was inconclusive: 33.1%.
With CCC(=O)Nc1c2c(nc3c1CCC3)CCCC2 the inhibition was inconclusive: 49%.
CCCOc1cccc(C2/C(=C(/O)c3ccc(F)cc3)C(=O)C(=O)N2CCN(C)C)c1 (stereo unspecified) was tested, and the inhibition was inconclusive: 46.5%.
With N#C/C(=N\Nc1ccc(S(=O)(=O)N2CCc3ccccc32)cc1)C(N)=S the inhibition was inconclusive: 35.5%.
In the case of CC(=O)N(C)c1ccc(NC(=O)c2cnn(C)c2)cc1, the inhibition is reported as inconclusive: 43.1%.
In the case of CC(C)C(=O)Nc1ccc(C(=O)N2CCN(C(=O)c3ccco3)CC2)cc1, the inhibition is reported as inconclusive: 36%.
In the case of CNC(=O)CN1C(=O)CSc2nc(C)cc(C)c21, the inhibition is reported as inconclusive: 57.1%.
With O=c1c2nnn(Cc3ccccc3)c2ncn1C/C=C/c1ccccc1 the inhibition was inactive: -0.52%.
In the case of COc1ccc(C2=NN(c3ccccc3)C(=O)/C2=C\c2ccc(O)c(OC)c2)cc1, the inhibition is reported as inconclusive: 49.9%.
With Cc1nnsc1C(=O)NCc1c(F)cccc1Cl the inhibition was inconclusive: 41.5%.
For CCOc1ccc(CNC23CN4CN(CN(C4)C2)C3)cc1, the inhibition was inconclusive: 33.9%.
Cc1ccc(S(=O)(=O)N2CCCCC2)cc1C(=O)Nc1ccc(S(=O)(=O)Nc2ncccn2)cc1 was tested, and the inhibition was inconclusive: 40.7%.
For N#Cc1c(NC(=O)c2cccnc2)sc2c1CCC2, the inhibition was inconclusive: 52.8%.
For COc1ccc(C(=O)OCCN=C2NS(=O)(=O)c3ccccc32)cc1OC, the inhibition was inactive: 0.81%.
In the case of COc1ccccc1-c1cc(C(F)(F)F)nc(NCc2cccs2)n1, the inhibition is reported as inconclusive: 41.6%.
COc1ccc(C(=O)Nc2ccc(N3CCN(c4ccc(OC)cc4)CC3)c(C#N)c2)cc1 was tested, and the inhibition was inconclusive: 44.3%.
For CCc1cc2c(=O)c(-c3nc4ccccc4n3C)c(COCC(=O)O)oc2cc1O, the inhibition was inconclusive: 49.2%.
COc1cccc(OC)c1C(=O)OCC(=O)NCc1ccco1 was tested, and the inhibition was inactive: 5.04%.
In the case of COC(=O)c1sc2nc(SCc3ccccc3C#N)n(N)c(=O)c2c1C, the inhibition is reported as inconclusive: 38.5%.
In the case of Cn1ccnc1SCC(=O)c1cc2ccccc2o1, the inhibition is reported as inconclusive: 35%.
With O=C(CN(CCO)Cc1ccccc1)N1CCN(S(=O)(=O)c2ccccc2)CC1 the inhibition was inactive: 0.45%.
O=C(/C=C/c1ccc([N+](=O)[O-])s1)N1CCN(c2ccccc2)CC1 was tested, and the inhibition was inactive: 2.14%.
With O=C(/C=C/c1ccco1)NC1=NCCS1 the inhibition was inconclusive: 58.1%.
In the case of COc1ccc(C(=O)OCCNC(=O)c2ccncc2)cc1OC, the inhibition is reported as inconclusive: 36.1%.
For Cc1c(N)cc(N)cc1C(=O)O, the inhibition was inconclusive: 56.1%.
For Cc1nc2ccccn2c1C(=O)/C=C/c1cccc([N+](=O)[O-])c1, the inhibition was inconclusive: 54.2%.
For CC(C)C(=O)N1CCN(c2ccccc2NC(=S)NC(=O)/C=C/c2ccco2)CC1, the inhibition was inactive: 4.53%.
For CCOC(=O)c1sc(Nc2ccc(F)cc2)nc1C, the inhibition was inconclusive: 53.6%.
In the case of CC(C)(C)c1ccc(O)c(/C=N\O)c1, the inhibition is reported as inconclusive: 45.6%.
COc1ccccc1NC(=O)NCCCl was tested, and the inhibition was inconclusive: 47.6%.
COc1ccc2nc(NNC(=O)C3COc4ccccc4O3)sc2c1 (stereo unspecified) was tested, and the inhibition was inconclusive: 37.9%.
O=C(N/N=C/C=C/c1ccco1)c1cccc([N+](=O)[O-])c1 was tested, and the inhibition was inconclusive: 64.5%.
With CN(C)C(=O)c1ccc2c(c1)C1C3CCC(C3)C1C(c1ccccc1)N2 (stereo unspecified) the inhibition was inactive: -2.04%.
CC(C)Cn1c(SCc2nnc(-c3cccs3)o2)nc(O)cc1=O was tested, and the inhibition was inconclusive: 40.2%.
